No constants are given. Whether binding was seen depends on the method and setting. Some entries that bind do so weakly or less than the wild type.
Molecular target: native-sequence human IGF-I (human) (UniProt P05019)
Assay: BIAcore

Amino acid sequences for entries named in this document (tags omitted). A change or cut given only in a name is not applied to a line headed by its entry. Residues count along the entry.
UniProt P05019, residues 49-118: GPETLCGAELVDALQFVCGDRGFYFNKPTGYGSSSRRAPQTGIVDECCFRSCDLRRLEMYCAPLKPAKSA
UniProt P17936: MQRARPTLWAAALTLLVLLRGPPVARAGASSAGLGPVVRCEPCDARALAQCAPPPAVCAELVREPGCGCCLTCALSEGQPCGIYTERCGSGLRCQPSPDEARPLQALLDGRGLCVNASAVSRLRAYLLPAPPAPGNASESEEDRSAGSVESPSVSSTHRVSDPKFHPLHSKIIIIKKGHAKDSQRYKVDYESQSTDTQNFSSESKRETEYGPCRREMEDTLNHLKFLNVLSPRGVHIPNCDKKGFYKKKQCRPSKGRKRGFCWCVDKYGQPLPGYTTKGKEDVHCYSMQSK

With “native-sequence human IGFBP-3 (from UniProt P17936 28-291)” the binding was “binds”.

Source: US20050148035A1
